This is one part of the list.
B1: il10ra_site1_normal_mot_HHH_b2_05323_000000159_0001_1_18_H_._HHH_b1_06664_0001_0000100010_0000002_0 (protein)
chain: SSSSDLLEEALELSLEAFRLALRGNPEEARKVAEEALELAEEEGDPQLFRQIEELLKALRSSSSS
B2: il10ra_site1_sap_19_mot_HHH_b2_07873_af2_000000172_0001_1_19_H_._2b3eed1bc0ad79715e02f0e0fad3abd3_0001_0001_0000400009_0000002_0_0001 (protein)
chain: SSSSSMEEIYELIREALELLARGDAEEARRVVEEAEEIARENNDRVALIQLEFLLRAIEIRSSSS
B3: il10ra_site1_sap_28_mot_HEEHE_1605_000000211_0001_40_56_H_._2012b86ae8029c2c8ab6d311e818aa61_0001_af2_0001_0000300013_0000002_0_0001 (protein)
chain: SSSSSDEEEERVEELLELLEKAKSREELARVAKEVLHLAFRLNDPELLEEVWEIFAKAASSSSSS
B4: il10ra_site1_normal_mot_HHH_b1_01821_000000158_0001_23_39_H_._HHH_b2_04081_0001_0000100006_0000001_0 (protein)
chain: SSSSDVEERIEELIERAEELAEQGNPEEASRLLQEAVQLAYRINDPELLRLIWEVFRELFSSSSS
B5: il10ra_site1_normal_mot_HHH_b2_01310_000000089_0001_41_55_H_._HHH_b1_00651_0001_0000100004_0000002_0_af2pred_0001 (protein)
chain: SSSSDEEEEERIQEYYERIRELAEEGNPEEALRLLRKLVRLAIKLGNQEALKLAIELAELLSSSS
B6: il10ra_site1_normal_mot_HHH_b2_07521_000000141_0001_20_37_H_._HHH_b1_05469_0001_0000200025_0000001_1_af2pred_0001 (protein)
chain: SSSSSDEEKAEAALRIAERLFELGDPEAARIILEALLKLLEEAGNEELLEKVEELLEEIESSSSS
B7: il10ra_site1_sap_26_mot_0eddeacbb14b769e73e254714f31e2f9_0001_af2_000000203_0001_37_51_H_._HHH_b1_06326_0001_0000100007_0000001_0_0001 (protein)
chain: SSSSDETQRVFELIREAAELLNEGNPEEAEKVLEEAREIAEELGNDIFRWQIEWLEKLIEQSSSS
B8: il10ra_site1_sap_29_mot_HHH_b1_05127_000000115_0001_41_56_H_._HHH_b1_05393_0001_0000300018_0000001_0_0001_af2pred_0001 (protein)
chain: SSSSSEERERVEELFEEAERLLEEGDYEEVARLIIEMAELARKGDDPEAIRLVLEIVRKLFSSSS
B9: il10ra_site1_sap_23_mot_HHH_b1_07286_af2_000000054_0001_1_19_H_._HHH_b2_06366_0001_0000200011_0000001_0_0001 (protein)
chain: SSSSDEAYRLVEEAIEEALKLWRNGNPEEAQELIERVIKELEELGNWAAVWAARHVLRVLRSSSS
B10: il10ra_site1_normal_mot_HHH_b1_06914_000000280_0001_1_18_H_._HHH_b2_01688_0001_0000100008_0000002_0 (protein)
chain: SSSSDELAREVYELSREAAELFAQGNEEEAREVLEEAERLAEENNNEFLLLQVRFLLRQIGSSSS
B11: il10ra_site1_sap_21_mot_HHH_b2_04679_000000194_0001_21_38_H_._HHH_b2_07003_af2_0001_0000300020_0000001_0_0001 (protein)
chain: SSSSDVEEEIRELIERAERLAEEGDPEKANELLLRALQLAYRINDPELLREIWEVFEELNSSSSS
B12: il10ra_site1_normal_mot_6bb093d23f5042b6c551c363657da53b_0001_1_000000153_0001_51_65_H_._HHH_b2_05733_af2_0001_0001000045_0000001_0_af2pred_0001 (protein)
chain: SSSSSEEEKRLKELIEELERLLEEGDEEKVLKVLLELSHLAIKLSDPEAIKLALRVAEELSSSSS
B13: il10ra_site1_normal_mot_HHH_b2_08050_000000089_0001_21_37_H_._HHH_b2_00643_0001_0000100003_0000001_0 (protein)
chain: SSSSSKSEQVRRFVRQLIEFSEETGDHRALEAAKSILRLAIESTGDPELEKLLEELEELLSSSSS
B14: il10ra_site1_normal_mot_22aa8d8ad8dce7f663ea8fa348a52261_0001_000000025_0001_37_51_H_._d8cfa582855fb05d91e09f57594ab115_0001_1_0001_0000700016_0000001_0 (protein)
chain: DEELEEALELLERLLPPELLRLLELTIKQLREQGAPPETILQALILLLRARGDPEAAELVEKLLK
B15: il10ra_site1_normal_mot_HHH_b1_03065_af2_000000286_0001_1_17_H_._HHH_b1_04164_af2_0001_0000300023_0000002_0 (protein)
chain: SSSSTDEIYEEVKELLEELNELLREGDEERAEELLKRAKELAEELNNLALRFAIEHLERLLSSSS
B16: il10ra_site1_normal_mot_HHH_b1_02997_000000220_0001_39_52_H_._HHH_b1_05536_0001_0000300041_0000001_1_af2pred_dldesign_0_af2pred (protein)
chain: SSSSSNKLNQEAVELLKKASELDDPEEQRRLLEKALELAKKAKSENLIAVTEYRLAQLEESSSSS
B17: il10ra_site1_normal_mot_HHH_b1_06914_000000280_0001_1_18_H_._HHH_b2_05268_0001_0000100015_0000002_0 (protein)
chain: SSSSNEEAHELYRLSREALELLAEGDPEEAREVVEEAEEIAERAGNRALLFVIEYLLRQINSSSS
B18: il10ra_site1_normal_mot_HHH_b1_05672_af2_000000246_0001_1_19_H_._HHH_b2_02879_af2_0001_0000500024_0000001_0_af2pred_dldesign_0_af2pred (protein)
chain: SSSSDPQTRVAELLREVVRLLDEGKPEEAREVLAEAERLAEELGDAELQKAVELVRAYVESSSSS

Molecular target: il10ra, Q13651
Test: yeast display titration

| Binder | apparent Kd |
| --- | --- |
| B1 | inactive: no binding seen |
| B2 | inactive: no binding seen |
| B3 | inactive: no binding seen |
| B4 | inactive: no binding seen |
| B5 | inactive: no binding seen |
| B6 | inactive: no binding seen |
| B7 | inactive: no binding seen |
| B8 | inactive: no binding seen |
| B9 | inactive: no binding seen |
| B10 | inactive: no binding seen |
| B11 | inactive: no binding seen |
| B12 | inactive: no binding seen |
| B13 | inactive: no binding seen |
| B14 | inactive: no binding seen |
| B15 | inactive: no binding seen |
| B16 | inactive: no binding seen |
| B17 | inactive: no binding seen |
| B18 | inactive: no binding seen |

Retrieved one by one from the list above:

| Binder | apparent Kd |
| --- | --- |
| B6 | inactive: no binding seen |
| B13 | inactive: no binding seen |
